Experimental data taken from patent US20200207835A1, “SRCP1-BASED THERAPY FOR DISEASES ASSOCIATED WITH PROTEIN AGGREGATION” (THE MEDICAL COLLEGE OF WISCONSIN, INC., priority 2017, published 2020).

Test system: proteasome
Assay: RFPSRCP1 turnover in HEK293 cells (western blot)
Assay type: cell-based, human

B1: SRCP1: Dictyostelium discoideum serine-rich chaperone protein 1 (SEQ ID NO:2), expressed in cells as RFP-tagged construct (protein)
chain: MTILSTFTSFSNPPKLNKSSFSSSTGSSLSMGSNSFAWGGGWGGFGGPKGGSFNVDIAGNLIWGVYGFIRGGVGLVKWRGLQKGCKQP
modifications: RFP tag; Dictyostelium discoideum AX4
RFPSRCP1 levels (HEK293, presence of GFPHttex1Q74): dramatic decrease in ^RFPSRCP1 levels
RFPSRCP1 levels (HEK293, proteasome inhibition (10 μM MG132, 18 hours)): marked stabilization
